{"sequences": {"note": "Chains of the proteins cited; added tags and fusions are not shown. Lines headed by an entry give the natural chain unless they say otherwise; changes in a name come on top.", "UniProt O00308": "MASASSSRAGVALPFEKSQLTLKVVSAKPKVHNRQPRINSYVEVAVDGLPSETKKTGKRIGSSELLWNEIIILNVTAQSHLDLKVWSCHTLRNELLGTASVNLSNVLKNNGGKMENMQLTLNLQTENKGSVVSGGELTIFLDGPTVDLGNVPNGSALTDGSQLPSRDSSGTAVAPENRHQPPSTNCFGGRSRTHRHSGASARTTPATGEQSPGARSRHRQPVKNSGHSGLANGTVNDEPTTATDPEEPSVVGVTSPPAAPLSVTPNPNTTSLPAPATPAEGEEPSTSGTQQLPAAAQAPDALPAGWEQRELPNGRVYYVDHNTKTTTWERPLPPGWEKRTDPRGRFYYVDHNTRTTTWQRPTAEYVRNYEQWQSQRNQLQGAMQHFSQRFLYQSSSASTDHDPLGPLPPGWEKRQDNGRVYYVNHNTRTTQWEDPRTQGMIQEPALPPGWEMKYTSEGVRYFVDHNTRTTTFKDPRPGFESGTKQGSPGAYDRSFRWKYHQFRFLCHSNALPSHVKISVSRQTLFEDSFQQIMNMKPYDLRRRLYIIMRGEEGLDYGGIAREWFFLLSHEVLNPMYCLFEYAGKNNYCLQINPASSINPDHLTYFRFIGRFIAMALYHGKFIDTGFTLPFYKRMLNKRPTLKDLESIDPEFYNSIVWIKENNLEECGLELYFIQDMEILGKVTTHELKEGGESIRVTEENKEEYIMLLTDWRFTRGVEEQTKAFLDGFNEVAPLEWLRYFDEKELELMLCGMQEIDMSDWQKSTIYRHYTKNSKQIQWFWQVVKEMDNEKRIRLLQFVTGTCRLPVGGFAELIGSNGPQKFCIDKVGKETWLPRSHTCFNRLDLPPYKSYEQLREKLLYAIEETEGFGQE", "UniProt Q06330": "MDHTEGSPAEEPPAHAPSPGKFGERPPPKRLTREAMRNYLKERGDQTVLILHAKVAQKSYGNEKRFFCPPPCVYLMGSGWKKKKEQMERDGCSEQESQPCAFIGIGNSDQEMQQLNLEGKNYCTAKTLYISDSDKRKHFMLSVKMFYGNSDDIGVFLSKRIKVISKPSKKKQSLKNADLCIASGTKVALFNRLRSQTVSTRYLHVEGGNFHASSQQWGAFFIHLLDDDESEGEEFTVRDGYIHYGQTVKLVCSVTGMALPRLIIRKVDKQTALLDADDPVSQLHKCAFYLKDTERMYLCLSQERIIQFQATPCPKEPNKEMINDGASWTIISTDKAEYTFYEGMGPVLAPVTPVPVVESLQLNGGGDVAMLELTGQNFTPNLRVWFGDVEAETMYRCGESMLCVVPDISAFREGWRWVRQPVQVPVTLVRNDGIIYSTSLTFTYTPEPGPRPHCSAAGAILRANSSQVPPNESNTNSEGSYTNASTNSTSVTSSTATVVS", "UniProt P46531": "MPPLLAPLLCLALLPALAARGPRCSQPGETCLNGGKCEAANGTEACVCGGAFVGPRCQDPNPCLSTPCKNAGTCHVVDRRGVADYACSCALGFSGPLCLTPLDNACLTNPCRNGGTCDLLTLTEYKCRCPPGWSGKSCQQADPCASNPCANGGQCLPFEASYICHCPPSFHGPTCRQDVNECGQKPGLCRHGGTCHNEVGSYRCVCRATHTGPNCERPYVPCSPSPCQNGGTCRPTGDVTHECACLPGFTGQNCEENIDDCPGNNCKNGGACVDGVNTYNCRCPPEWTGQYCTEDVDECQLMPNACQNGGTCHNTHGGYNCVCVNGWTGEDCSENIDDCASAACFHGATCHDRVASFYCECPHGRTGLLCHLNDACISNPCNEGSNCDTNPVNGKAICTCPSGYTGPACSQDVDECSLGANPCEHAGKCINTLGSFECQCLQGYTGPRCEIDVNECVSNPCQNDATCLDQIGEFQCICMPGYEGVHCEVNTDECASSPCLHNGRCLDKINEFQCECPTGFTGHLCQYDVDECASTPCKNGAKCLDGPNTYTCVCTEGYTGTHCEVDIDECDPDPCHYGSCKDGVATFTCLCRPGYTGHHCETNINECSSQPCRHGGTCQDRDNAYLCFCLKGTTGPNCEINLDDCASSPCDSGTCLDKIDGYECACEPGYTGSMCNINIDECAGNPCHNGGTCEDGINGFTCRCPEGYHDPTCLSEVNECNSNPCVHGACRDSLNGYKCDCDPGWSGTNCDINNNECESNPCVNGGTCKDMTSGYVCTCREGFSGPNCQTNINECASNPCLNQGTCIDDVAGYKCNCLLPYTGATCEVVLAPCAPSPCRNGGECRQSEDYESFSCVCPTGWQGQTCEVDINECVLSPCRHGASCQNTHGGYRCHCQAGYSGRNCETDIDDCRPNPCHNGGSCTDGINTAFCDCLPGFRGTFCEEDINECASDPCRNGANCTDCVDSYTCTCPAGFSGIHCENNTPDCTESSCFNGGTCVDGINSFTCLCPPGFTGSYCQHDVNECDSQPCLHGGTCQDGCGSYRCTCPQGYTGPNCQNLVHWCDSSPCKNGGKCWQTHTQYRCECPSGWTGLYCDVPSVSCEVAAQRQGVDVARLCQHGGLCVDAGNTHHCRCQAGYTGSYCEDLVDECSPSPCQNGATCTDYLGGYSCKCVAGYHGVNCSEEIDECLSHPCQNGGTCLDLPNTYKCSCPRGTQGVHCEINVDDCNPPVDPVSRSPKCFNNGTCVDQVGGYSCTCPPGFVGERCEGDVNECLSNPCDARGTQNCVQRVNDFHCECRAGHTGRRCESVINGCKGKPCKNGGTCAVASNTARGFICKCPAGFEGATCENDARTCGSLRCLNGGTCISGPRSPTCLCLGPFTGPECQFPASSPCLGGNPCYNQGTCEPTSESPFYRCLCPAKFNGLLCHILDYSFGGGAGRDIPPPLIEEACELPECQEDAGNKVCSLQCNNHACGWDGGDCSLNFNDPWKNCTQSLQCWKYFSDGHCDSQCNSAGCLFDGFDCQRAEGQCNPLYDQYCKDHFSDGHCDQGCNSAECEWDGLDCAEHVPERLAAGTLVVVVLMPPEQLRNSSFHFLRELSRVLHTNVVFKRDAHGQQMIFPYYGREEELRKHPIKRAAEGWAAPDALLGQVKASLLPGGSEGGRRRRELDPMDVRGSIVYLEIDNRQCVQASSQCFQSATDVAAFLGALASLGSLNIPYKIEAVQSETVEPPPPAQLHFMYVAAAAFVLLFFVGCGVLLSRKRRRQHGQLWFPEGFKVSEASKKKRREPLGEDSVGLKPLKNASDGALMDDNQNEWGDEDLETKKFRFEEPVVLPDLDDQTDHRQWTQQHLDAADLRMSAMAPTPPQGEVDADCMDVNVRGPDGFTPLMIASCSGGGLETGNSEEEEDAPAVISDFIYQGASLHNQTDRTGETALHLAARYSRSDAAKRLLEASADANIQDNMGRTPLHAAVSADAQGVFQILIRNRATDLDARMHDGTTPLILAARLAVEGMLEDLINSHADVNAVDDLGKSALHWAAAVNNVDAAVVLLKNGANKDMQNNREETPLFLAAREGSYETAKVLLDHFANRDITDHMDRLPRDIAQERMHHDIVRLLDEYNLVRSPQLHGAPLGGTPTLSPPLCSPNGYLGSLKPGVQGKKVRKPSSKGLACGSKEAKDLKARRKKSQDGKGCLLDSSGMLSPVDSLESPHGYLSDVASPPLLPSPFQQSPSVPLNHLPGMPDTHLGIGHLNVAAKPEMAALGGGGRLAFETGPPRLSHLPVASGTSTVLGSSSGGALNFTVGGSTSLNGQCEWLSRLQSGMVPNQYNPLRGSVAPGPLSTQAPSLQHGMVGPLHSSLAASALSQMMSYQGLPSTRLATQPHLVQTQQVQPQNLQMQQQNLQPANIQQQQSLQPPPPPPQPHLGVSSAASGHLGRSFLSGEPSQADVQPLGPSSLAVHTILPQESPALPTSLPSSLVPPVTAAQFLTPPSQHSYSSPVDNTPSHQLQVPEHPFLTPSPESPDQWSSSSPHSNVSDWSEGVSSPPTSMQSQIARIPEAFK"}, "source": "paper PMC4214668", "molecules": {"B1": {"name": "recombinant human N3-ICD-V5 (Notch3 intracellular cytoplasmic domain, Met1663-Ala2321) (domain or fragment, UniProt Q9UM47 1663-2321)", "chain": "MVARRKREHSTLWFPEGFSLHKDVASGHKGRREPVGQDALGMKNMAKGESLMGEVATDWMDTECPEAKRLKVEEPGMGAEEAVDCRQWTQHHLVAADIRVAPAMALTPPQGDADADGMDVNVRGPDGFTPLMLASFCGGALEPMPTEEDEADDTSASIISDLICQGAQLGARTDRTGETALHLAARYARADAAKRLLDAGADTNAQDHSGRTPLHTAVTADAQGVFQILIRNRSTDLDARMADGSTALILAARLAVEGMVEELIASHADVNAVDELGKSALHWAAAVNNVEATLALLKNGANKDMQDSKEETPLFLAAREGSYEAAKLLLDHFANREITDHLDRLPRDVAQERLHQDIVRLLDQPSGPRSPPGPHGLGPLLCPPGAFLPGLKAAQSGSKKSRRPPGKAGLGPQGPRGRGKKLTLACPGPLADSSVTLSPVDSLDSPRPFGGPPASPGGFPLEGPYAAATATAVSLAQLGGPGRAGLGRQPPGGCVLSLGLLNPVAVPLDWARLPPPAPPGPSFLLPLAPGPQLLNPGTPVSPQERPPPYLAVPGHGEEYPAAGAHSSPPKARFLRVPSEHPYLTPSPESPEHWASPSPPSLSDWSESTPSPATATGAMATTTGALPAQPLPLSVPSSLAQAQTQLGPQPEVTPKRQVLA"}, "B2": {"name": "V5-tagged Notch4-ICD (Val 1467-Lys 2003) (domain or fragment, UniProt Q99466 1467-2003)", "chain": "VLQLIRRRRREHGALWLPPGFTRRPRTQSAPHRRRPPLGEDSIGLKALKPKAEVDEDGVVMCSGPEEGEEVGQAEETGPPSTCQLWSLSGGCGALPQAAMLTPPQESEMEAPDLDTRGPDGVTPLMSAVCCGEVQSGTFQGAWLGCPEPWEPLLDGGACPQAHTVGTGETPLHLAARFSRPTAARRLLEAGANPNQPDRAGRTPLHAAVAADAREVCQLLLRSRQTAVDARTEDGTTPLMLAARLAVEDLVEELIAAQADVGARDKWGKTALHWAAAVNNARAARSLLQAGADKDAQDNREQTPLFLAAREGAVEVAQLLLGLGAARELRDQAGLAPADVAHQRNHWDLLTLLEGAGPPEARHKATPGREAGPFPRARTVSVSVPPHGGGALPRCRTLSAGAGPRGGGACLQARTWSVDLAARGGGAYSHCRSLSGVGAGGGPTPRGRRFSAGMRGPRPNPAIMRGRYGVAAGRGGRVSTDDWPCDWVALGACGSASNIPIPPPCLTPSPERGSPQLDCGPPALQEMPINQGGEGKK"}}, "key": {"[1]": {"biological_target": "FLAG-tagged WWP2 (wild type, full length) expressed in HEK293T cells (human) (UniProt O00308)", "assay": "co-IP; HEK293T (293T, 293) cells transiently co-transfected with FLAG-tagged WWP2 constructs and V5-tagged Notch constructs (in Figure 3 also HA-ubiquitin); lysis in 50 mM Tris pH 8.0, 150 mM NaCl, 1% NP40; IP with anti-FLAG M2 gel or anti-V5 agarose, western blot with the respective antibody"}, "[2]": {"biological_target": "recombinant WWP2-GST (human) (UniProt O00308)", "assay": "pull-down; GST-WWP2 or control GST bound to glutathione-Sepharose beads, incubated with increasing concentrations of rhN3-ICD for 1 hr at 4°C; western blot with anti-GST or anti-V5; flow through also blotted; both purified"}, "[3]": {"biological_target": "RBPJ (CSL), spot on the human proteome microarray (human) (UniProt Q06330)", "assay": "peptide or protein array; human proteome microarray of 16,368 full-length human recombinant proteins spotted in duplicate; blocked with 2% BSA in PBS, incubated with purified N3-ICD-V5 for 1 hr at room temperature, washed in TBST, detected with mouse anti-V5 and Alexafluor 647 anti-mouse; both purified"}, "[4]": {"biological_target": "WWP2, spot on the human proteome microarray (human) (UniProt O00308)", "assay": "peptide or protein array; human proteome microarray of 16,368 full-length human recombinant proteins spotted in duplicate; blocked with 2% BSA in PBS, incubated with purified N3-ICD-V5 for 1 hr at room temperature, washed in TBST, detected with mouse anti-V5 and Alexafluor 647 anti-mouse; both purified"}, "[5]": {"biological_target": "FLAG-tagged WWP2 (wild type, full length) expressed in HEK293T cells (human) (UniProt O00308)", "assay": "co-IP; HEK293T (293T, 293) cells transiently co-transfected with FLAG-tagged WWP2 constructs and V5-tagged Notch constructs (in Figure 3 also HA-ubiquitin); lysis in 50 mM Tris pH 8.0, 150 mM NaCl, 1% NP40; IP with anti-FLAG M2 gel or anti-V5 agarose, western blot with the respective antibody", "remark": "listed apart in the source"}}, "note": "Where two headings read alike, the source gives them in different places. These are yes or no findings as the source states them, for the method shown. For some assays here: In cells and extracts the contact can be indirect. Some entries that bind do so weakly or less than the wild type. For some assays here: Tags and fused reporters may be left off the sequences shown.", "data": [{"molecule": "Notch1/Notch3 chimera (Notch1 RAM domain and ANK repeats joined to the C-terminal PEST domain of Notch3), V5-tagged (from UniProt P46531 1754-2114; Q9UM47 2026-2321)", "values": [{"measurement": "binding", "setting": "[1]", "result": "binds"}]}, {"molecule": "B1", "values": [{"measurement": "binding", "setting": "[2]", "result": "binds"}, {"measurement": "binding", "setting": "[3]", "result": "binds"}, {"measurement": "binding", "setting": "[4]", "result": "binds"}]}, {"molecule": "B2", "values": [{"measurement": "binding", "setting": "[5]", "result": "no binding"}]}]}
